{
  "source": "paper PMC9854190",
  "target": "T1, FLAG-USP33 (UniProt Q8TEY7)",
  "T1 sequence": "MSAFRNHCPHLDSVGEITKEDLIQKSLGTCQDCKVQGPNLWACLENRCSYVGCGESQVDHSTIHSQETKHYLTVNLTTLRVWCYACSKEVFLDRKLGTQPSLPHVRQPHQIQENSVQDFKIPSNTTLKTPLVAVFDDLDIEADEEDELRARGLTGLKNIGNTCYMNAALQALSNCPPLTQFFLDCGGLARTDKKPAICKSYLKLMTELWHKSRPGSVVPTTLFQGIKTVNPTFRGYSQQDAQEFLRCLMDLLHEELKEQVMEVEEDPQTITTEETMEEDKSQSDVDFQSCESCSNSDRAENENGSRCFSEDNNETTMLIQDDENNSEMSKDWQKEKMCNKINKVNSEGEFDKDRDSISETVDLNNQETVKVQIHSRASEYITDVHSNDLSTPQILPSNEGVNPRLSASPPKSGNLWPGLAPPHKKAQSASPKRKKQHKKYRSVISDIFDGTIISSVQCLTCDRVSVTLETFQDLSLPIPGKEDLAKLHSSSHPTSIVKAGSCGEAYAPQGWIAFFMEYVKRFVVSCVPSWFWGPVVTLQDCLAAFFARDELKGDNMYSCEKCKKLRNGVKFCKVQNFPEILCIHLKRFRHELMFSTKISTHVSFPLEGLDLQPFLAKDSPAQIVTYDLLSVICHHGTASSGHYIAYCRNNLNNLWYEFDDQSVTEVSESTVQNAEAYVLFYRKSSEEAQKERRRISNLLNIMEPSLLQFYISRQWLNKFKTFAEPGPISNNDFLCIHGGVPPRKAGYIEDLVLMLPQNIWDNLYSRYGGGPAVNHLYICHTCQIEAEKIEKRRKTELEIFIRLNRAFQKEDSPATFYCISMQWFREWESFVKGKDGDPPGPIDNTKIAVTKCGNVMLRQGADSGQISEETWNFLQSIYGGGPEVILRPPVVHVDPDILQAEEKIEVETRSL",
  "experiment": "co-IP; HEK-293 cells expressing D3R, transfected; treated with vehicle, 30 nM DA or 100 nM quinpirole (once or washed and re-challenged, desensitization protocol); also Con-KD and Mdm2-KD cells; RIPA lysates, anti-M2 FLAG agarose beads overnight at 4 °C; co-IP blotted for HA or importin β1",
  "note": "These are yes or no findings as the source states them, for the method shown. Binding seen in cells or lysates may run through a third protein. Binding can be weak; no strength is given. Tags and fused reporters may be left off the sequences shown.",
  "data": [
    {"substance": "HA-Akt (enzyme)", "values": [
      {"measurement": "binding", "value": "binds"}
    ]}
  ]
}
